In publication PMC4811471:
For at least one entry, the source does not settle the construct or the ends of the probe. No signal at the amounts used counts as a negative.

Sequences of proteins named here, by UniProt entry; tags and fusion partners are left off.
UniProt Q15717, whole entry: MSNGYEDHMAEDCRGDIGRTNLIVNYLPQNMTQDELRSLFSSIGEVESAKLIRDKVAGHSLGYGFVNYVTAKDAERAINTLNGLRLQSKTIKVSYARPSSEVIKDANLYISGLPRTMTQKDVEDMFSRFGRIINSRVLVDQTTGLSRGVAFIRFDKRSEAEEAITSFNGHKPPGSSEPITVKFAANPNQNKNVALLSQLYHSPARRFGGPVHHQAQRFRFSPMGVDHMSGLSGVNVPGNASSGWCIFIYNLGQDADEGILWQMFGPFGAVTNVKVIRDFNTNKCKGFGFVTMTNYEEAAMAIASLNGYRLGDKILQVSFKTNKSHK

Target: GST-HuR (UniProt Q15717)
Assay: UV cross-linking
Settings: 3 mM Mg2+, 300 mM KCl; UV cross-linking: 10 mM Tris-HCl pH 7.4, 3 mM MgCl2, 300 mM KCl, 1 mM DTT, 0.2 mM PMSF, leupeptin, 30 min room temperature, then RNase T1/A and heparin; recombinant protein; protein details: N-terminal GST (pGEX-KG); label: 32P-UTP; probe letters rebuilt from the primers and the genome; part of a longer …

| Sequence | binding result |
| --- | --- |
| AUAUAAGAACUCUUGCAGUCUUAGAUGUUAUAAAAAUAUAUAUCUGAAUUGUAAGAGUUGUUAGCACAAGUUUUUUUUUUUUUUUUUUUUAAGCACUUGUUUUGGGUACAAGGCAUUUCUGACAUUUUAUAAACCUACAUUUAAGGGGAAUUUUUAAAGGAAAUGUUUUUUCUUUUUUUUUUGUUUUUCGAGGGGGCAAG [PDCD4 3'UTR S1] | binds |
| GAGGGACAGAAAAGUAACCUCUUCUUAAGUGGAAUAUUCUAAUAAGCUACCUUUUGUAAGUGCCAUGUUUAUUAUCUAAUCAUUCCAAGUUUUGCAUUGAUGUCUGACUGCCACUCCUUUCUUUCAAGGACAGUGUUUUUUGUAGUAAAAUCACUGGUUUAUACAAAGCUUUAUUUAGGGGGUAAAGUUAAGCUGCUAAAA [PDCD4 3'UTR S2] | no binding |
